Paper PMC11170107, “Development of a new hazard scoring system in primary neuronal cell cultures for drug-induced acute neuronal toxicity identification in early drug discovery” (Frontiers in Pharmacology, 2024)

tested on: rat primary cortical neurons; test: MEA hazard scoring in rat primary cortical neuronal cultures; conditions: 113 reference drugs

| SMILES | correctness of hazard classification against known seizure risk in man |
| --- | --- |
| N=C(N)NC(=O)c1nc(Cl)c(N)nc1N [Amiloride] | false positive |
| NC[C@H]1CC[C@H](C(=O)O)CC1 [Tranexamic Acid] | not correctly classified |
| COc1cc2c(cc1OC)C(=O)C(CC1CCN(Cc3ccccc3)CC1)C2 (stereo not shown) [Donepezil] | not correctly classified |
| Clc1ccc2c(c1)C(N1CCNCC1)=Nc1ccccc1O2 [Amoxapine] | not correctly classified |
